Values from PubChem BioAssay AID1259425 (University of Nebraska Medical Center, 2018)
Purpose: 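Find knockdowns that reproduce the gene expression pattern seen when KSR1 is lost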 (primary screen). Cells: HCT116 human colon cancer cells. Reagents: siRNA pool against human genes, 50 nM siRNA. Detection: 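After 50 nM siRNA pool, branched-DNA assay measures six marker transcripts per well, minus blank, normalised to the geometric mean of two housekeeping transcripts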. Reading the numbers: BNIP3L mRNA: higher = more BNIP3L transcript after knockdown; NDRG1 mRNA: higher = more NDRG1 transcript after knockdown; BNIP3 mRNA: higher = more BNIP3 transcript after knockdown; ALDOC mRNA: higher = more ALDOC transcript after knockdown; ACSL5 mRNA: higher = more ACSL5 transcript after knockdown.
The whole screen tested about 14,000 reagents; below is a part drawn at random. Some reagents were tested in more than one well and are listed for each. Not given: the time to read-out.

gene	BNIP3L mRNA, set 1	NDRG1 mRNA, set 1	BNIP3 mRNA, set 1	ALDOC mRNA, set 1	ACSL5 mRNA, set 1
SRRM2 (serine/arginine repetitive matrix 2)	0.17	0.188	0.352	0.0132	0.131
FAM3B (FAM3 metabolism regulating signaling molecule B)	0.0963	0.186	0.234	0.03	0.139
GTPBP1 (GTP binding protein 1)	0.0393	0.0647	0.194	0.0146	0.168
ADAMTS10 (ADAM metallopeptidase with thrombospondin type 1 motif 10)	0.102	0.246	0.282	0.0324	0.117
CFAP46 (cilia and flagella associated protein 46)	0.0832	0.148	0.307	0.0086	0.121
CASP5 (caspase 5)	0.0894	0.0469	0.258	0.0296	0.0927
TAF1L (TATA-box binding protein associated factor 1 like)	0.0843	0.123	0.324	0.006	0.198
ATP6V0A4 (ATPase H+ transporting V0 subunit a4)	0.0564	0.133	0.24	0.0309	0.118
PDZD11 (PDZ domain containing 11)	0.172	0.142	0.42	0.0181	0.152
CD3E (CD3 epsilon subunit of T-cell receptor complex)	0.164	0.238	0.298	0.0156	0.34
CD3E (CD3 epsilon subunit of T-cell receptor complex)	0.249	0.212	0.299	0.0623	0.268
NAT1 (N-acetyltransferase 1)	0.0769	0.0888	0.297	0.0126	0.0825
SLC22A8	0.0867	0.2	0.129	0.0314	0.122
DPP7 (dipeptidyl peptidase 7)	0.109	0.128	0.175	0.00278	0.0551
TSN (translin)	0.125	0.108	0.198	0.0162	0.19
EPS15 (epidermal growth factor receptor pathway substrate 15)	0.0964	0.151	0.249	0.011	0.222
APBB2 (amyloid beta precursor protein binding family B member 2)	0.134	0.0686	0.288	0.0188	0.064
SLC2A2	0.0826	0.164	0.335	0.0281	0.134
ITGA6 (integrin subunit alpha 6)	0.0341	0.209	0.335	0.0368	0.128
ROS1 (ROS proto-oncogene 1, receptor tyrosine kinase)	0.0413	0.0655	0.242	0.0122	0.217
EMX1 (empty spiracles homeobox 1)	0.088	0.303	0.264	0.00582	0.267
SORCS3 (sortilin related VPS10 domain containing receptor 3)	0.176	0.243	0.338	0.0391	0.224
NDST2 (N-deacetylase and N-sulfotransferase 2)	0.155	0.171	0.34	0.0299	0.279
BFAR (bifunctional apoptosis regulator)	0.0648	0.139	0.249	0.0273	0.141
GMFB (glia maturation factor beta)	0.0501	0.211	0.295	0.0121	0.225
DUSP3 (dual specificity phosphatase 3)	0.168	0.197	0.246	0.0147	0.129
KRT83 (keratin 83)	0.112	0.207	0.312	0.0151	0.0827
TNFRSF1A (TNF receptor superfamily member 1A)	0.106	0.38	0.161	0.0523	0.203
AGPAT3 (1-acylglycerol-3-phosphate O-acyltransferase 3)	0.202	0.371	0.269	0.06	0.421
PRPS1 (phosphoribosyl pyrophosphate synthetase 1)	0.172	0.36	0.383	0.0189	0.142
CAMK1G (calcium/calmodulin dependent protein kinase IG)	0.0807	0.144	0.485	0.0166	0.18
IRF2 (interferon regulatory factor 2)	0.3	0.23	0.43	0.243	0.32
SPG11 (SPG11 vesicle trafficking associated, spatacsin)	0.1	0.466	0.347	0.0192	0.116
SETD5 (SET domain containing 5)	0.101	0.642	0.244	0.0453	0.205
RALBP1 (ralA binding protein 1)	0.0759	0.205	0.328	0.0285	0.252
GNPTAB	0.0869	0.125	0.385	0.0833	0.167
MCRS1 (microspherule protein 1)	0.112	0.758	0.412	0.0861	0.167
HEBP1 (heme binding protein 1)	0.103	0.596	0.307	0.035	0.285
AKAP8L (A-kinase anchoring protein 8 like)	0.0866	0.0777	0.443	0.0168	0.267
AKAP8L (A-kinase anchoring protein 8 like)	0.0849	0.163	0.358	0.0225	0.27
RGL2 (ral guanine nucleotide dissociation stimulator like 2)	0.133	0.256	0.218	0.0444	0.181
CHN2 (chimerin 2)	0.0679	0.119	0.241	0.06	0.165
PTH2R (parathyroid hormone 2 receptor)	0.191	0.312	0.329	0.045	0.233
GPHN (gephyrin)	0.0835	0.117	0.205	0.0145	0.12
IFI44 (interferon induced protein 44)	0.128	0.249	0.301	0.0396	0.119
CASD1 (CAS1 domain sialic acid O acetyltransferase 1)	0.145	0.204	0.448	0.0263	0.236
LAX1 (lymphocyte transmembrane adaptor 1)	0.416	0.448	0.907	0.146	0.149
SLC10A3	0.178	1.44	0.411	0.031	0.235
NUP153 (nucleoporin 153)	0.125	0.165	0.228	0.0359	0.0714
MARK1 (microtubule affinity regulating kinase 1)	0.0403	0.168	0.299	0.0188	0.366

Quoted from above for reference:
gene	BNIP3L mRNA, set 1	NDRG1 mRNA, set 1	BNIP3 mRNA, set 1	ALDOC mRNA, set 1	ACSL5 mRNA, set 1
CD3E (CD3 epsilon subunit of T-cell receptor complex)	0.249	0.212	0.299	0.0623	0.268
NAT1 (N-acetyltransferase 1)	0.0769	0.0888	0.297	0.0126	0.0825
SLC22A8	0.0867	0.2	0.129	0.0314	0.122
DPP7 (dipeptidyl peptidase 7)	0.109	0.128	0.175	0.00278	0.0551
TSN (translin)	0.125	0.108	0.198	0.0162	0.19
EPS15 (epidermal growth factor receptor pathway substrate 15)	0.0964	0.151	0.249	0.011	0.222
